According to patent US20080160520A1, “Methods and Composition for Diagnosing and Treating Cancer” (priority 2006, published 2008):
At least one structure is not confirmed: it was looked up by name or label, or the drawing left a doubt.

Experiments:
aneuploid yeast strains = type: cell-based, S. cerevisiae
Description: To determine whether the synthesis of proteins from the additional chromosomes and their presence in the cell represents an increased burden on the cell's protein production machinery, the ability of aneuploid strains to grow under conditions that interfere with transcription, protein synthesis and protein folding was examined.

[1] = test system: cdc28-4 and cdc23-1 mutants; assay: Sensitivity of slow-proliferating cdc28-4 and cdc23-1 mutants to protein synthesis inhibitors; type: cell-based, S. cerevisiae; conditions: mutants severely impaired in cell division even at 23° C.; FIGS. 4C and D

| Compound | sensitivity of strains carrying an extra chromosome (aneuploid yeast strains; all strains except cells disomic for chromosome X, FIG. 4F) | sensitivity of aneuploid strains (aneuploid yeast strains; all aneuploid strains except disomes I, II or IX, FIG. 4D) | sensitivity of cells disomic for chromosome X (aneuploid yeast strains; disome X (TOR1 located on this chromosome), FIG. 4D) | sensitivity of cdc28-4 and cdc23-1 mutants [1] |
| --- | --- | --- | --- | --- |
| COC1=C2C[C@@H](C)C[C@H](OC)[C@H](O)[C@@H](C)/C=C(\C)[C@H](OC(N)=O)[C@@H](OC)/C=C\C=C(/C)C(=O)NC(=CC1=O)C2=O [geldanamycin] | modestly sensitive |  |  |  |
| CO[C@H]1C[C@@H]2CC[C@@H](C)[C@@](O)(O2)C(=O)C(=O)N2CCCC[C@H]2C(=O)O[C@H]([C@H](C)C[C@@H]2CC[C@@H](O)[C@H](OC)C2)CC(=O)[C@H](C)/C=C(\C)[C@@H](O)[C@@H](OC)C(=O)[C@H](C)C[C@H](C)/C=C/C=C/C=C/1C [rapamycin] |  | increased sensitivity | not sensitive | did not exhibit increased sensitivity |
